What was measured:
[1] = test system: open-chest, barbital-anesthetized dogs; experiment: Protocol II (preconditioning): four 5-minute occlusion/reperfusion cycles before 60-minute occlusion and 3 hours reperfusion in dogs; assay type: in vivo, dog
Method: Preconditioning was elicited by four 5-minute occlusion/5-minute reperfusion cycles produced 10 minutes before the 60-minute occlusion.

[2] = test system: open-chest, barbital-anesthetized dogs; experiment: Protocol I (pretreatment): 60 minutes of coronary artery occlusion and 3 hours of reperfusion in dogs

SMILES	Regional myocardial blood flow, ischemic-reperfused region, endo (endocardium) ([1]; occ30)	Regional myocardial blood flow, ischemic-reperfused region, epi (epicardium) ([1]; occ30)	Regional myocardial blood flow, ischemic-reperfused region, mid (midmyocardium) ([1]; occ30)	Regional myocardial blood flow, ischemic-reperfused region, transmural ([1]; occ30)	Regional myocardial blood flow, non-ischemic region, endo (endocardium) ([1]; occ30)	Regional myocardial blood flow, non-ischemic region, epi (epicardium) ([1]; occ30)	Regional myocardial blood flow, non-ischemic region, mid (midmyocardium) ([1]; occ30)	Regional myocardial blood flow, non-ischemic region, transmural ([1]; occ30)	Regional myocardial blood flow, ischemic-reperfused region, endo (endocardium) ([1]; rep3 hr)	Regional myocardial blood flow, ischemic-reperfused region, epi (epicardium) ([1]; rep3 hr)	Regional myocardial blood flow, ischemic-reperfused region, mid (midmyocardium) ([1]; rep3 hr)	Regional myocardial blood flow, ischemic-reperfused region, transmural ([1]; rep3 hr)	Regional myocardial blood flow, non-ischemic region, endo (endocardium) ([1]; rep3 hr)	Regional myocardial blood flow, non-ischemic region, epi (epicardium) ([1]; rep3 hr)	Regional myocardial blood flow, non-ischemic region, mid (midmyocardium) ([1]; rep3 hr)	Regional myocardial blood flow, non-ischemic region, transmural ([1]; rep3 hr)	other results
CCCn1c(=O)c2[nH]c([C@H]3C[C@@H]4C[C@H]3[C@H]3O[C@@H]43)nc2n(CCC)c1=O [BG 9719, 8-(2S-5,6-exo-epoxy-endo-norborn-2-yl)-1,3-dipropyl-3,7-dihydro-purine-2,6-dione]	0.06 ± 0.01 ml/min/gm	0.14 ± 0.04 ml/min/gm	0.08 ± 0.02 ml/min/gm	0.09 ± 0.02 ml/min/gm	0.86 ± 0.16 ml/min/gm	0.91 ± 0.22 ml/min/gm	0.92 ± 0.14 ml/min/gm	0.90 ± 0.13 ml/min/gm	0.64 ± 0.10 ml/min/gm	0.63 ± 0.12 ml/min/gm	0.43 ± 0.04 ml/min/gm	0.56 ± 0.10 ml/min/gm	0.88 ± 0.20 ml/min/gm	0.83 ± 0.13 ml/min/gm	0.87 ± 0.11 ml/min/gm	0.86 ± 0.12 ml/min/gm	–
CCCn1c(=O)c2[nH]c(C3CCCC3)nc2n(CCC)c1=O [CPX, 8-Cyclopentyl-1,3-dipropyl-3,7-dihydro-purine-2,6-dione]	0.04 ± 0.01 ml/min/gm	0.07 ± 0.03 ml/min/gm	0.05 ± 0.01 ml/min/gm	0.06 ± 0.02 ml/min/gm	0.73 ± 0.22 ml/min/gm	0.97 ± 0.20 ml/min/gm	0.78 ± 0.12 ml/min/gm	0.83 ± 0.20 ml/min/gm	0.68 ± 0.12 ml/min/gm	0.62 ± 0.12 ml/min/gm	0.54 ± 0.11 ml/min/gm	0.61 ± 0.10 ml/min/gm	0.81 ± 0.15 ml/min/gm	0.85 ± 0.12 ml/min/gm	0.76 ± 0.12 ml/min/gm	0.81 ± 0.13 ml/min/gm	Regional myocardial blood flow, ischemic-reperfused region, endo (endocardium) ([2]; occ30): 0.05 ± 0.01 ml/min/gm; Regional myocardial blood flow, ischemic-reperfused region, epi (epicardium) ([2]; occ30): 0.15 ± 0.04 ml/min/gm; Regional myocardial blood flow, ischemic-reperfused region, mid (midmyocardium) ([2]; occ30): 0.08 ± 0.02 ml/min/gm; Regional myocardial blood flow, ischemic-reperfused region, transmural ([2]; occ30): 0.09 ± 0.02 ml/min/gm; Regional myocardial blood flow, non-ischemic region, endo (endocardium) ([2]; occ30): 0.54 ± 0.04 ml/min/gm; Regional myocardial blood flow, non-ischemic region, epi (epicardium) ([2]; occ30): 0.60 ± 0.08 ml/min/gm; Regional myocardial blood flow, non-ischemic region, mid (midmyocardium) ([2]; occ30): 0.66 ± 0.08 ml/min/gm; Regional myocardial blood flow, non-ischemic region, transmural ([2]; occ30): 0.60 ± 0.06 ml/min/gm; Regional myocardial blood flow, ischemic-reperfused region, endo (endocardium) ([2]; rep3 hr): 0.90 ± 0.16 ml/min/gm; Regional myocardial blood flow, ischemic-reperfused region, epi (epicardium) ([2]; rep3 hr): 0.48 ± 0.06 ml/min/gm; Regional myocardial blood flow, ischemic-reperfused region, mid (midmyocardium) ([2]; rep3 hr): 0.49 ± 0.04 ml/min/gm; Regional myocardial blood flow, ischemic-reperfused region, transmural ([2]; rep3 hr): 0.62 ± 0.06 ml/min/gm; Regional myocardial blood flow, non-ischemic region, endo (endocardium) ([2]; rep3 hr): 0.61 ± 0.06 ml/min/gm; Regional myocardial blood flow, non-ischemic region, epi (epicardium) ([2]; rep3 hr): 0.66 ± 0.07 ml/min/gm; Regional myocardial blood flow, non-ischemic region, mid (midmyocardium) ([2]; rep3 hr): 0.64 ± 0.07 ml/min/gm; Regional myocardial blood flow, non-ischemic region, transmural ([2]; rep3 hr): 0.64 ± 0.06 ml/min/gm
CCCn1c(=O)c2[nH]c(C34CCC(CCC(=O)O)(CC3)CC4)nc2n(CCC)c1=O [BG 9928, 3-[4-(2,6-dioxo-1,3-dipropyl-2,3,6,7-tetrahydro-1H-purin-8-yl)-bicyclo[2.2.2]oct-1-yl]-propionic acid]	0.03 ± 0.01 ml/min/gm	0.12 ± 0.04 ml/min/gm	0.06 ± 0.01 ml/min/gm	0.07 ± 0.01 ml/min/gm	0.51 ± 0.12 ml/min/gm	0.48 ± 0.14 ml/min/gm	0.49 ± 0.14 ml/min/gm	0.49 ± 0.13 ml/min/gm	0.72 ± 0.30 ml/min/gm	0.45 ± 0.13 ml/min/gm	0.31 ± 0.10 ml/min/gm	0.49 ± 0.14 ml/min/gm	0.56 ± 0.14 ml/min/gm	0.45 ± 0.06 ml/min/gm	0.47 ± 0.12 ml/min/gm	0.50 ± 0.13 ml/min/gm	–

Source: patent publication US20050203065A1, “Method of treating ischemia reperfusion injury using adenosine receptor antagonists” (priority 2002, published 2005)
